{"sequences": {"note": "Chains of the proteins cited; added tags and fusions are not shown. Lines headed by an entry give the natural chain unless they say otherwise; changes in a name come on top.", "UniProt Q7KYR7": "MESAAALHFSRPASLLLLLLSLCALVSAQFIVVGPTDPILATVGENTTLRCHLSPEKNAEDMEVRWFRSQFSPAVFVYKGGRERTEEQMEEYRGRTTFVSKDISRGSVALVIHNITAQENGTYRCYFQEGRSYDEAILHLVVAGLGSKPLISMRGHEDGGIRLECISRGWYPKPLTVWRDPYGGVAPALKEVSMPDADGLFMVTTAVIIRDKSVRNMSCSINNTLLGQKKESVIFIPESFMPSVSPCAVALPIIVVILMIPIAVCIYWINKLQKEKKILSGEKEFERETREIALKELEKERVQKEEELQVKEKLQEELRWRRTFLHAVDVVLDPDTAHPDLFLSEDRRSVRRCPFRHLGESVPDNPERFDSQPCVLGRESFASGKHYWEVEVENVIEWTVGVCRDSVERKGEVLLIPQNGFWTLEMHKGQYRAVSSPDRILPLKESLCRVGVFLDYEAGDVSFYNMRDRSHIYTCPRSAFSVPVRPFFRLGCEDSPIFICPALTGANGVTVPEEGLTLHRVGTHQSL"}, "source": "patent US20200283519A1", "about": "(IMCHECK THERAPEUTICS, published 2020)", "binders": {"B1": {"name": "mAb6 (mouse anti-human BTN2 mAb 8.16) (antibody, V domains shown)", "VH": "EVKLLESGGGLVQPGGSLKLSCAASGFDFSGYWMTWVRQAPGKGLEWIGEINPDSSTINYTPSLRDKFIISRDNAKNTLYLQMSKVRSEDTALYFCARGSYYPSYWGQGTLVTVSA", "VL": "DIVLTQSPASLAVSLGQRATISCRASKSVSSSGYSYMNWYQQKPGQPPKLLIYLASNLESGVPARFSGSGSGTDFTLNIHPVEDEDAATYYCQHSRELPHTFGGGTKLEIK", "notes": "Mouse IgG1 purified from hybridoma supernatant; also called CNCM I-5236"}}, "molecular_target": "human BTN2A1 CFP(Nter)-fusion protein expressed on 293F BTN3/BTN2 KO cells (human) (UniProt Q7KYR7)", "test": "flow cytometry on 293F BTN3/BTN2 KO cells transfected with BTN2A1-CFP", "note": "No constants are given. Whether binding was seen depends on the method and setting. Some results given as binding are weak or reduced against the parent protein; the word gives no strength.", "data": [{"binder": "B1", "values": [{"measurement": "binding", "result": "binds"}]}]}
